{
  "source": "PubChem BioAssay AID504842",
  "about": "(National Center for Advancing Translational Sciences (NCATS), 2011)",
  "note": "About 100 (0.03%) of roughly 330,000 compounds were called active. Inconclusive results, whose numbers are uncertain, are shown with a selection of clear calls. The call rests on the fitted dose curve; in most records, active means well fitted inhibition curve with a large enough effect; inconclusive means small, poorly fitted or top-dose-only effect; inactive means flat fitted curve, though single readings scatter. Where the call is inconclusive, the potency comes from a doubtful curve fit. Potency means the concentration at half of the fitted maximal effect.",
  "data": [
    {"tested_on": "Chaperonin Mm-Cpn (Methanococcus maripaludis)", "test": "Inhibitors of TCP-1 ring complex (TRiC) of Methanococcus maripaludis (MmCpn): qHTS; further: nearly all actives have a fitted effect of over 80% in size;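 on potency: enzyme at 25 nM with ATP substrate at 10 µM during the reaction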", "details": "purified Mm-Cpn ATPase, ADP Transcreener TR-FRET", "method_in_brief": "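Inhibition of chaperonin ATP hydrolysis is measured as reduced ADP production, detected by competitive TR-FRET in which signal falls with ADP. Final enzyme 25 nM and ATP 10 uM, reacted 30 min at 37°C.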", "values": [
      {"smiles": "COc1ccc(C)cc1NC(=O)CN1CCN(CC(=O)Nc2ccccc2F)CC1", "Potency": "inactive"},
      {"smiles": "COc1ccc([C@H](OC)[C@@]2(Cc3ccc(O)cc3)N=C(N)N(C)C2=O)cc1", "Potency": "inconclusive: 100 µM [inhibitor, single point]"},
      {"smiles": "CO/N=C/c1ccc(N2CCN(C(=O)c3cccc(C(F)(F)F)c3)CC2)c([N+](=O)[O-])c1", "Potency": "inactive"},
      {"smiles": "CCOC(=O)/C(=N/Nc1ccc(C)cc1)S(=O)(=O)c1ccc(Cl)cc1", "Potency": "inconclusive: 17.8 µM [inhibitor, single point]"},
      {"smiles": "CCOc1cc(N2CCOCC2)c(OCC)cc1NC(=O)c1ccc(S(C)(=O)=O)cc1", "Potency": "inactive"},
      {"smiles": "CC1CCN(Cc2c(C(=O)N/N=C/c3cc(Br)ccc3O)nnn2-c2nonc2N)CC1", "Potency": "inconclusive: 50.1 µM [inhibitor, single point]"},
      {"smiles": "C=CCc1c(C)nc(SC)nc1Nc1ccc(C(C)=O)cc1", "Potency": "inconclusive: 112 µM [inhibitor, partial curve, poor fit]"},
      {"smiles": "N#Cc1ccc(N/N=C/c2cn(-c3ccccc3)nc2-c2ccccc2)c([N+](=O)[O-])c1", "Potency": "inconclusive: 89.1 µM [inhibitor, single point]"},
      {"smiles": "CC(=O)N1N=C(c2ccc(Cl)cc2)OC1c1ccc(C(C)C)cc1", "note": "(configuration not stated)", "Potency": "inactive"},
      {"smiles": "CN(C)c1ccc(C(=S)NCc2ccco2)cc1", "Potency": "inconclusive: 56.2 µM [inhibitor, single point]"},
      {"smiles": "COc1cc(/C=C(/C#N)c2ccccc2F)ccc1OCc1ccccc1", "Potency": "inconclusive: 10 µM [inhibitor, single point]"},
      {"smiles": "CCOC(=O)c1ccc(NC(=O)CSc2nc3c(c(=O)n2-c2ccccc2OC)SCC3)cc1", "Potency": "inconclusive: 501 µM [inhibitor, partial curve, poor fit]"},
      {"smiles": "CN(C)c1ccc(N/C=C/C(=O)C(C)(C)C)cc1", "Potency": "active: 22.4 µM"},
      {"smiles": "CCCC(=O)Nc1ccc(-c2csc(NNC(C)=O)n2)cc1", "Potency": "inconclusive: 447 µM [inhibitor, partial curve, poor fit]"},
      {"smiles": "O=C(c1ccc(Cl)s1)N1CCCC1", "Potency": "inconclusive: 89.1 µM [inhibitor, single point]"},
      {"smiles": "Cc1ccc(S(=O)(=O)Nc2ccc(O)c(Sc3ncn[nH]3)c2)cc1", "Potency": "inactive"},
      {"smiles": "CCOc1cc(C2CC(=O)c3c(ccc4ccccc34)N2)ccc1O", "note": "(configuration not stated)", "Potency": "inconclusive: 12.6 µM [inhibitor, single point]"},
      {"smiles": "CC(C)(C)NC(=O)NC(=O)CN1CCN(Cc2ccccc2)CC1", "Potency": "inactive"},
      {"smiles": "Cc1cc(C)nc(NCC(O)CNc2ccccc2Cl)n1", "note": "(configuration not stated)", "Potency": "inactive"},
      {"smiles": "O=C(O)c1ccccc1NS(=O)(=O)c1ccc(NNC(=S)Nc2ccc(OC(F)F)cc2)c([N+](=O)[O-])c1", "Potency": "inactive"},
      {"smiles": "COc1ccc(C(=O)C[n+]2ccc(N)c(C)c2C)cc1", "Potency": "inconclusive: 224 µM [inhibitor, partial curve, poor fit]"},
      {"smiles": "CCNC(=S)N/N=C(\\C)c1ccc2ccccc2c1OC(F)F", "Potency": "inactive"},
      {"smiles": "COC(=O)c1ccc(S(=O)(=O)NNC(=O)COc2ccc(C)cc2)cc1", "Potency": "inconclusive: 89.1 µM [inhibitor, single point]"},
      {"smiles": "CCCn1nnc(NC(=O)c2ccc(-c3ccccc3)cc2)n1", "Potency": "inconclusive: 100 µM [inhibitor, partial curve, poor fit]"},
      {"smiles": "O=C(Nc1cccc(S(=O)(=O)NC2=NCCCCC2)c1)c1cc(-c2ccccc2Cl)nc2ccccc12", "Potency": "inconclusive: 100 µM [inhibitor, single point]"},
      {"smiles": "COC(=O)c1ccc2c(c1)c(C#Cc1ccccc1)c(-c1ccccc1)n2C", "Potency": "inconclusive: 501 µM [inhibitor, partial curve, poor fit]"},
      {"smiles": "Cc1ccccc1-c1nsc(SCC(=O)c2ccc(Cl)cc2)n1", "Potency": "inconclusive: 79.4 µM [inhibitor, single point]"},
      {"smiles": "Nc1cc(N)cc(C(=O)OCC(=O)Nc2cc(S(=O)(=O)N3CCCCC3)ccc2Cl)c1", "Potency": "inconclusive: 28.2 µM [inhibitor, single point]"},
      {"smiles": "Cc1cccc2cc(CN(CCCO)C(=O)Nc3ccccc3Cl)c(=O)[nH]c12", "Potency": "inconclusive: 12.6 µM [inhibitor, single point]"},
      {"smiles": "CC1=NN(c2ccc(S(=O)(=O)O)cc2C)C(=O)C1", "Potency": "inactive"},
      {"smiles": "COc1ccccc1-c1sc2ccccc2c1-c1ccc(OCCN2CCCCC2)cc1", "Potency": "inconclusive: 200 µM [inhibitor, partial curve, poor fit]"},
      {"smiles": "O=C(Nc1nc2c(Cl)cccc2s1)c1ccc([N+](=O)[O-])o1", "Potency": "inactive"},
      {"smiles": "Cc1cccc(NC(=O)c2ccc3c(c2)C(=O)N(c2ccccc2C)C3=O)n1", "Potency": "inconclusive: 39.8 µM [inhibitor, single point]"},
      {"smiles": "Cc1cc(SCC(=O)c2cc3ccccc3o2)nc2ccccc12", "Potency": "inconclusive: 28.2 µM [inhibitor, single point]"},
      {"smiles": "N#CCC(=O)Nc1ccc(C(=O)OCC(=O)c2ccc3c(c2)NC(=O)CO3)cc1", "Potency": "inconclusive: 794 µM [inhibitor, partial curve, poor fit]"},
      {"smiles": "Cc1[nH]n(-c2cccc3ccccc23)c(=O)c1/C=N/c1sc2c(c1C#N)CCC2", "Potency": "inactive"},
      {"smiles": "CN1CCN(C(=O)c2cc(=O)c3cc(Cl)ccc3o2)CC1", "Potency": "inconclusive: 10 µM [inhibitor, single point]"},
      {"smiles": "CS(=O)(=O)c1nc(S(=O)(=O)c2ccc(Cl)cc2)c(NCCN2CCOCC2)s1", "Potency": "inconclusive: 22.4 µM [inhibitor, single point]"},
      {"smiles": "Cc1ccc(C2CC(=O)C(C=NCCN3CCN(C(=S)Nc4ccccc4)CC3)=C(O)C2)cc1", "note": "(configuration not stated)", "Potency": "inconclusive: 56.2 µM [inhibitor, single point]"},
      {"smiles": "COc1cccc(Nc2nnc(SCC(=O)N3CC(=O)Nc4ccccc43)s2)c1", "Potency": "inconclusive: 100 µM [inhibitor, single point]"},
      {"smiles": "COc1ccc(CCNC(=O)C23CN(Cc4ccccc4)CC2C(c2cccc([N+](=O)[O-])c2)=NO3)cc1", "note": "(configuration not stated)", "Potency": "inconclusive: 70.8 µM [inhibitor, single point]"},
      {"smiles": "COc1cccc(/C=C/c2ccc3cccc(O)c3n2)c1OC", "Potency": "inconclusive: 20 µM [inhibitor, single point]"}
    ]}
  ]
}
